Publication PMC10853778 (Nucleic Acids Research, 2022)
Results are given in words; binding and its absence hold for the method and conditions named.

Molecular target: T1, RTEL1 harmonin homology domain 2 (residues 1056-1140) (human) (UniProt Q9NZ71)
T1 sequence: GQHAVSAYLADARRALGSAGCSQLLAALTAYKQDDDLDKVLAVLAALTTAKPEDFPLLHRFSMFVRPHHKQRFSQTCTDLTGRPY
Experiment: NMR titration; 15N-labelled partner titrated with unlabelled partner; 1H-15N HSQC, 25°C, 20 mM Tris-HCl pH 7.4, 50 mM NaCl, 2 mM DTT, 0.02% NaN3; Kd and Koff from TITAN 2D lineshape analysis, two-state model; both purified

binding: no binding
B1: RTEL1 harmonin homology domain 1 (residues 886-978) (domain or fragment, UniProt Q9NZ71-6 886-978)
chain: EPVAGAQTDRAKLFMVAVKQELSQANFATFTQALQDYKGSDDFAALAACLGPLFAEDPKKHNLLQGFYQFVRPHHKQQFEEVCIQLTGRGCGY
